Results are given in words; binding and its absence hold for the method and conditions named. Some entries that bind do so weakly or less than the wild type. Where a sequence is shown, tags or fusion partners need not be part of it.
Target: Mouse UGRP1 type B polypeptide tagged with a c-myc epitope at the carboxyl-terminus, expressed in COS-1 cells (mouse) (UniProt Q920H1)
Experiment: anti-c-myc immunoblot of COS-1 cell lysate and conditioned medium, non-reducing vs reducing SDS-PAGE; homodimer

binding: binds
B1: Mouse UGRP1 type B polypeptide tagged with a c-myc epitope at the carboxyl-terminus, expressed in COS-1 cells (protein, UniProt Q920H1-3 22-113, looked up, not shown: small tags and cut ends)
chain: LLINRLPVVDKLPVPLDDIIPSFDPLKMLLKTLGISVEHLVTGLKKCVDELGPEASEAVKKLLVIIICSYFPGRSLCYVNNLPSFEALSHLV

Reference: patent US20040234982A1 (published 2004)
